Assay results as given in patent US20250313647A1 (CHILDREN S MEDICAL CENTER, published 2025).
Results are given in words; binding and its absence hold for the method and conditions named. Some results given as binding are weak or reduced against the parent protein; the word gives no strength.

Protein sequences, listed by entry. Tags and fused reporters are not part of them. Lines headed by an entry give the natural chain unless they say otherwise; changes in a name come on top. Chains listed by the source or under a name are the forms on record and can include a tag or linker.
human mutant nucleophosmin 1 (NPM1c) (P06748, form named): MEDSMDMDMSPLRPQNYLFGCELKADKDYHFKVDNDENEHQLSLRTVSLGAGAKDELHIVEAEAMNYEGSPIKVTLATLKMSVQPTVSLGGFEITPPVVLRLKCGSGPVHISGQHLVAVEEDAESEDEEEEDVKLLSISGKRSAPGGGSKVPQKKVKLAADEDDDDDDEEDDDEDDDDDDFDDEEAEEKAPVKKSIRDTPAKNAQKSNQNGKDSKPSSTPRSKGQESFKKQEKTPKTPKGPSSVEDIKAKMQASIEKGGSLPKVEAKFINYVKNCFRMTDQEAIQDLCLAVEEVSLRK

Key:
[1] = biological target: human mutant nucleophosmin 1 (NPM1c) (human) (UniProt P06748); experiment: FACS, human NPM1c PDX cells (FIG. 8B)
[2] = biological target: human mutant nucleophosmin 1 (NPM1c) (human) (UniProt P06748); experiment: flow cytometry, human AML PDX-2 (NPM1c) cells from mice

B1: Ab1 anti-NPM1 antibody (antibody, V domains shown)
VH: EVQLQQSVAELVRPGASVKLSCTASGFNIKNIFVHWVKQRPEQGLEWIGKIDPANDNTKFAPNFQGKAAISADTSSNTAYLQLSSLTSEDTAIYYCASDSSGYDAVDYWGQGTSVTVSS
VL: DIQMTQSPASLSASVGETVTITCRASESVYTYLAWYQQKQGKSPQLLVYNAKTLTEGVPSRFSGSGSGTQFSLRINSLQPEDFGSYYCQHHYGTPYTFGSGTKLEIKR
notes: also called isolated WT anti-NPM1 antibody
- binding [1]: binds
- binding [2]: binds
